In the supplement of paper PMC12819154, “High-throughput peptide-centric local stability assay extends protein–ligand identification to membrane proteins, tissues and bacteria” (Nature Structural & Molecular Biology, 2025):
This is one part of the list. Most entries show no effect beyond the scatter of the controls.

Sequences of proteins named here, by UniProt entry; tags and fusion partners are left off. A change or cut given only in a name is not applied to a line headed by its entry.
UniProt Q96AJ1: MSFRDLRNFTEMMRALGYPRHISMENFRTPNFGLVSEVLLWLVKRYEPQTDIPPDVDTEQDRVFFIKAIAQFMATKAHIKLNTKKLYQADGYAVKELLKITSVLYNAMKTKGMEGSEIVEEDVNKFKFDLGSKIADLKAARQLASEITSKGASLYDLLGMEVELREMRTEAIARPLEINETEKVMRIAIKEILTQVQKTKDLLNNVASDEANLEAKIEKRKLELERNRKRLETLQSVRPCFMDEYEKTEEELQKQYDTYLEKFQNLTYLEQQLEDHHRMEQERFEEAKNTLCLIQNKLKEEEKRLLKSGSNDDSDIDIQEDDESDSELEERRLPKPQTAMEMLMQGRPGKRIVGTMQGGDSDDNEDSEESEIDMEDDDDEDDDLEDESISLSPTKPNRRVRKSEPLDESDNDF
UniProt Q969W3: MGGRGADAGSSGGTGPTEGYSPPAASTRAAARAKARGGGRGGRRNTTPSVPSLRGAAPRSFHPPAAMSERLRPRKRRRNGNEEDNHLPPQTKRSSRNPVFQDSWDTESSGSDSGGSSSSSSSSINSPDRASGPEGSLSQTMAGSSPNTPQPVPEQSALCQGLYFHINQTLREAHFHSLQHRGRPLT
UniProt Q96E09: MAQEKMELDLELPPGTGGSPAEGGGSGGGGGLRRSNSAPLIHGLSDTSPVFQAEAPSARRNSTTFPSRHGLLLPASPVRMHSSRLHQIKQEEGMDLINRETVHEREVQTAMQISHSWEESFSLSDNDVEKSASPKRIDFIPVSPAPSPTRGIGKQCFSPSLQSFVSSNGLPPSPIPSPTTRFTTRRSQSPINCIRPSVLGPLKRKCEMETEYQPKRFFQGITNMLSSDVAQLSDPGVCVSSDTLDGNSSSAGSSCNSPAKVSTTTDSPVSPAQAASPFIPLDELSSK
UniProt Q96EY8: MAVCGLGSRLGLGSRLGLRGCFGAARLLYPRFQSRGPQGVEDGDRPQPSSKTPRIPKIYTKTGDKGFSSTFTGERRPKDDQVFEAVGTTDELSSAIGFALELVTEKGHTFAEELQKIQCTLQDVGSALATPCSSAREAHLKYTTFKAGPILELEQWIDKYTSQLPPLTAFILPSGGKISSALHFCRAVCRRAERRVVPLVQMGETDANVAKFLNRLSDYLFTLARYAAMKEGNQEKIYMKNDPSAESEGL
UniProt Q93045: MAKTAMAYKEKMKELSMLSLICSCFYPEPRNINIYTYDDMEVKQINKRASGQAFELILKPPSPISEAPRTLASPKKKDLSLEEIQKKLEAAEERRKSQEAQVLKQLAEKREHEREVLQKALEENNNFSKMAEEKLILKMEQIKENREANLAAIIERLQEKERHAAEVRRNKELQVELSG
UniProt Q96CW5, whole entry: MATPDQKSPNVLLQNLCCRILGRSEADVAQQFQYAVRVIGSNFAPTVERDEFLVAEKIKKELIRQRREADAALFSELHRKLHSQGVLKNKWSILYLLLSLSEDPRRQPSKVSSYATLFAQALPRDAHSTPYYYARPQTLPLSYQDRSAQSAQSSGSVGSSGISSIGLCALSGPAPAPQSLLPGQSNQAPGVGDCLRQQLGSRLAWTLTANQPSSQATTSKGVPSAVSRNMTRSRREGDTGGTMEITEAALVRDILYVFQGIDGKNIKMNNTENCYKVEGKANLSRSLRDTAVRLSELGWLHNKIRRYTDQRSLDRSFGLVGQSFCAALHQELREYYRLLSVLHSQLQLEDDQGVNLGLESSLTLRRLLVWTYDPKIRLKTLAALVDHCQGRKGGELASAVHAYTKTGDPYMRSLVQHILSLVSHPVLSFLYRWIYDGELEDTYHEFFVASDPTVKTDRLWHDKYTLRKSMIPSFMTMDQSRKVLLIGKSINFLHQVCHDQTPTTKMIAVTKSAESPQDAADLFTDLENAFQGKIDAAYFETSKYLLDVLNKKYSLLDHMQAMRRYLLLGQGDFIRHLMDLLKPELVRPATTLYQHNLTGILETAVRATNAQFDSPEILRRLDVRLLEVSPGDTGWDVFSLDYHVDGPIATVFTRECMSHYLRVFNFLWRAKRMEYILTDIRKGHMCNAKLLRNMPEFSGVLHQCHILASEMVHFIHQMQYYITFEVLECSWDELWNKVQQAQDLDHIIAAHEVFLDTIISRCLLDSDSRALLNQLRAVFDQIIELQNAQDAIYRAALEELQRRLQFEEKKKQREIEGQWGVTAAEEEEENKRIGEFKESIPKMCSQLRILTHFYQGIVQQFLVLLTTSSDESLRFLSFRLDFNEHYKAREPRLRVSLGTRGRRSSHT
UniProt Q96B23: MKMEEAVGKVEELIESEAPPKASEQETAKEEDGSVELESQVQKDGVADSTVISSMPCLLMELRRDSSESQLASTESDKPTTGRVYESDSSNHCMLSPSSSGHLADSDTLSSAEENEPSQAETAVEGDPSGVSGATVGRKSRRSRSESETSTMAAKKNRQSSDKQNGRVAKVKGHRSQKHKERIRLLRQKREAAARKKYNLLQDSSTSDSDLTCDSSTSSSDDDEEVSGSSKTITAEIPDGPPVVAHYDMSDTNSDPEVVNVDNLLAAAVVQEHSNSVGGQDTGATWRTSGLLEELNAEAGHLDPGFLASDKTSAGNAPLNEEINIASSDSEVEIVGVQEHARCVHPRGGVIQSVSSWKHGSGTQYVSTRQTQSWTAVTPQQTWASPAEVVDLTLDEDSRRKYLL
UniProt Q96AT9: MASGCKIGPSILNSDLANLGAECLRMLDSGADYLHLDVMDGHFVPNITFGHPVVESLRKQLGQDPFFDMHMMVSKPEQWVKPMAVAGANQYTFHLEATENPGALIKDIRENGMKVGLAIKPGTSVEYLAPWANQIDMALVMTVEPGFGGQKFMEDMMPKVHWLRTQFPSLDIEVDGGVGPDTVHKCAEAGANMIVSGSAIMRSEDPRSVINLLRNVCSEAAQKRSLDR
UniProt Q92623: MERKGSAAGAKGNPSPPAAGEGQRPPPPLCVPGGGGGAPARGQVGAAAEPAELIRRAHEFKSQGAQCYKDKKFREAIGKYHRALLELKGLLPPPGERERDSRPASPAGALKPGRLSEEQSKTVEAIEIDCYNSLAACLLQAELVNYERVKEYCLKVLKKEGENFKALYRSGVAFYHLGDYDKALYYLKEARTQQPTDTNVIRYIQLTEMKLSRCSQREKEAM
UniProt Q92889: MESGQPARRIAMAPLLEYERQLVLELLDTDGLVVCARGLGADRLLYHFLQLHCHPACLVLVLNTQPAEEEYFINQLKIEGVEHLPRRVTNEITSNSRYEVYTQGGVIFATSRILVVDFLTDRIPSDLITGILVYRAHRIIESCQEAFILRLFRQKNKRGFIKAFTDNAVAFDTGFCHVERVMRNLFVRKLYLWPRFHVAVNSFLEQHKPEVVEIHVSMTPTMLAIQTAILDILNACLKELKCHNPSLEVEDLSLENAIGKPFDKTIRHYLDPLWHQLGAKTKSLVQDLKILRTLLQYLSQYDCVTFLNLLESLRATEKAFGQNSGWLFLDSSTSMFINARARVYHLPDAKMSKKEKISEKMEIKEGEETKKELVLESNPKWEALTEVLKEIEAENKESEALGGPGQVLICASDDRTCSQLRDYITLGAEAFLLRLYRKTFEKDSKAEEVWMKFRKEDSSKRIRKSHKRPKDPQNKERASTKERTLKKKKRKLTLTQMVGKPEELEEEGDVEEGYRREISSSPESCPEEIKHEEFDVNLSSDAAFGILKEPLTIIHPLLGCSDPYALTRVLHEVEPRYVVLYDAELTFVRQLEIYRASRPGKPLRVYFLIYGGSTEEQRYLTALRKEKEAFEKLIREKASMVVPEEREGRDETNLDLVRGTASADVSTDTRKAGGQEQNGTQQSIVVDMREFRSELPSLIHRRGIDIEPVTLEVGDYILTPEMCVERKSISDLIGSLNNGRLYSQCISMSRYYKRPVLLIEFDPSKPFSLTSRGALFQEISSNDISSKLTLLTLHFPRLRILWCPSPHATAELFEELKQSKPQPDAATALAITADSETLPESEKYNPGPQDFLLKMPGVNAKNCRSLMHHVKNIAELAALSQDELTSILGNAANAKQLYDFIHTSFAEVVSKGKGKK
UniProt Q93073: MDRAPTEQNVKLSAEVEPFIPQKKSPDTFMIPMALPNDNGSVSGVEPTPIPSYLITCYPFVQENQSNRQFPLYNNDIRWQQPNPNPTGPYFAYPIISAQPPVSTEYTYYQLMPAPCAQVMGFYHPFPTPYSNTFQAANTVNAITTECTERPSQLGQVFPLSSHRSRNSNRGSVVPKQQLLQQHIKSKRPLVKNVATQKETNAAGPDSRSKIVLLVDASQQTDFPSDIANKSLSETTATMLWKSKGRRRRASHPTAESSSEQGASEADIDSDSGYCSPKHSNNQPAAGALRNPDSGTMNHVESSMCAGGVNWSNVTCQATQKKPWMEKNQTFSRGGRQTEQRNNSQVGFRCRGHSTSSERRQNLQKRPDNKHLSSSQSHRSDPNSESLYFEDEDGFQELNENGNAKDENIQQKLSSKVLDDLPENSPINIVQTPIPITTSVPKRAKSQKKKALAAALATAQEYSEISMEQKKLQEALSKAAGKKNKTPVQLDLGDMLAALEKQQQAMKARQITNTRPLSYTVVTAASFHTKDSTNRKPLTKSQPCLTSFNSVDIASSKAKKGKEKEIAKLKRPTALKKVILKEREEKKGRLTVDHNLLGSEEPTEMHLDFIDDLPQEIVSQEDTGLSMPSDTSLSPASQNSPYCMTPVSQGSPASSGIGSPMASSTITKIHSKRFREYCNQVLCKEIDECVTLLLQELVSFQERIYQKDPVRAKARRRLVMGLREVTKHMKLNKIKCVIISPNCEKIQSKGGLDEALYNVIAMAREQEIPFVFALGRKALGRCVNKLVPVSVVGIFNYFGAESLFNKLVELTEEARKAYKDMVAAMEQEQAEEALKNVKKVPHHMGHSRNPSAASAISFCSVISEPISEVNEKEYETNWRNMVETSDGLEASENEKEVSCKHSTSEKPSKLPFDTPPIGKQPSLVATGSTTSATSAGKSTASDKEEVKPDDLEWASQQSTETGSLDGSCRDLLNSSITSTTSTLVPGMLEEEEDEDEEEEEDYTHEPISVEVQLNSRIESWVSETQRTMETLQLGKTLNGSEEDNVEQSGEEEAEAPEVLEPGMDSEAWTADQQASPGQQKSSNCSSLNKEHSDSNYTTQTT
UniProt Q96CF2: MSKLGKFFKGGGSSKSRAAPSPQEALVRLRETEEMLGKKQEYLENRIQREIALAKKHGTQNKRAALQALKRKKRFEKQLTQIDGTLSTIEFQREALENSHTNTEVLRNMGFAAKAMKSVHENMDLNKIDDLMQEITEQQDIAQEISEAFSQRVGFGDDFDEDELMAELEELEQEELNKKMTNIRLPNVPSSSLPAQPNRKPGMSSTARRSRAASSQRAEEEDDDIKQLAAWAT
UniProt Q92619: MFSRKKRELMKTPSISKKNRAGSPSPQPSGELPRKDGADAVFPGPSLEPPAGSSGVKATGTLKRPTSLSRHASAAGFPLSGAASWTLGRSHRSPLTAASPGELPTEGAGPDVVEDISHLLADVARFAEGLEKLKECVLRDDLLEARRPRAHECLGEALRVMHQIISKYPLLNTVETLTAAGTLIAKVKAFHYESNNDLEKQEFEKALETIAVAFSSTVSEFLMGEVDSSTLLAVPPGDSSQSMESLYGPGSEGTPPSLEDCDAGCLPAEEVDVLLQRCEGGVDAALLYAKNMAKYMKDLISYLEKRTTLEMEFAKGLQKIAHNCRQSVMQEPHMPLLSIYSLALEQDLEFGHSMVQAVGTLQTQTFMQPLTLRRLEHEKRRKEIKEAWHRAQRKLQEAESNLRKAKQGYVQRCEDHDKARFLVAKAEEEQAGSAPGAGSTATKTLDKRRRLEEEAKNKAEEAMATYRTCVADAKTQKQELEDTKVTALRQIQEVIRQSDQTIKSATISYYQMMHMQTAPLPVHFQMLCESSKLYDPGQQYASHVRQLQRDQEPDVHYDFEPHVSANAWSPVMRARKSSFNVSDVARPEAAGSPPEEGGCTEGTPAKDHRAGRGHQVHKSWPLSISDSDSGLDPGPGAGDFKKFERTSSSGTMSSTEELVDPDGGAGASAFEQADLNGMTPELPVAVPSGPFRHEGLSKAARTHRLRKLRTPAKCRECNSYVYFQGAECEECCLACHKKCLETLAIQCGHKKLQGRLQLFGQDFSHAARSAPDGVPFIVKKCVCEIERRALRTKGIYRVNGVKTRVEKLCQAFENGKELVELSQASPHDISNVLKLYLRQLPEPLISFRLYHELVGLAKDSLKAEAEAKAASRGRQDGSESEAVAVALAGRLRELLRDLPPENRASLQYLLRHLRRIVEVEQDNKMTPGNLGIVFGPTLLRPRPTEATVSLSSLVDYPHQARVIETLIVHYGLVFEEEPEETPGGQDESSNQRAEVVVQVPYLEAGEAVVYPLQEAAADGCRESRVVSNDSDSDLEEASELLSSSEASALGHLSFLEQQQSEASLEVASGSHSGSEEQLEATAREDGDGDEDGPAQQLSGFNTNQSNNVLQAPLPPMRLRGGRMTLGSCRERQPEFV

The targets below were run with Cc1nc(Nc2ncc(C(=O)Nc3c(C)cccc3Cl)s2)cc(N2CCN(CCO)CC2)n1 [dasatinib] (assay: log2 fold change of tryptic peptide abundance, ligand vs vehicle (limited proteolysis) (log2 ratio); higher = more trypsin-susceptible (destabilized)). Conditions: ligand concentration: 5 uM; sample: K562 cleared lysate.

| Target | log2 fold change |
| --- | --- |
| KAT5 (peptide sequence: SHDDIVTR, peptide start residue: 221) (UniProt Q92993) | 0.115 |
| CLUAP1 (peptide sequence: QLASEITSK, peptide start residue: 142) (UniProt Q96AJ1) | -0.292 |
| FAM104A (peptide sequence: NTTPSVPSLR, peptide start residue: 45) (UniProt Q969W3) | -0.173 |
| UniProt Q96BW9 (peptide sequence: VLNIVKPNIAHFR, peptide start residue: 201) | 0.555 |
| FUBP1 (peptide sequence: IGGDAGTSLNSNDYGYGGQK, peptide start residue: 45) (UniProt Q96AE4) | 0.248 |
| NACC2 (peptide sequence: NTLANSCGTGIR, peptide start residue: 410) (UniProt Q96BF6) | 0.106 |
| UniProt Q969U6 (peptide sequence: QILPHQMTTAGPVLGEGR, peptide start residue: 369) | 0.306 |
| UniProt Q96CW1 (peptide sequence: DIILPFR, peptide start residue: 282) | -0.256 |
| TTC28 (peptide sequence: SQEESNPK, peptide start residue: 2149) (UniProt Q96AY4) | 1.01 |
| FAM122A (peptide sequence: HGLLLPASPVR, peptide start residue: 69) (UniProt Q96E09) | -0.298 |
| MMAB (peptide sequence: RVVPLVQMGETDANVAK, peptide start residue: 195) (UniProt Q96EY8) | 0.189 |
| PBXIP1 (peptide sequence: MDPESER, peptide start residue: 30) (UniProt Q96AQ6) | -0.0886 |
| STMN2 (peptide sequence: ALEENNNFSKMAEEK, peptide start residue: 120) (UniProt Q93045) | -0.277 |
| TUBGCP3 (peptide sequence: EADAALFSELHR, peptide start residue: 68) (UniProt Q96CW5) | -0.354 |
| STAM (peptide sequence: ASPALVAKDPGTVANKK, peptide start residue: 155) (UniProt Q92783) | -0.408 |
| C18orf25 (peptide sequence: SRSESETSTMAAKK, peptide start residue: 143) (UniProt Q96B23) | -0.35 |
| RAD54L (peptide sequence: ELTSIVNR, peptide start residue: 383) (UniProt Q92698) | -0.543 |
| RILPL2 (peptide sequence: ELMALGSDPR, peptide start residue: 51) (UniProt Q969X0) | 0.194 |
| ZBTB10 (peptide sequence: GGGGGGLGNNGSSR, peptide start residue: 127) (UniProt Q96DT7) | 0.555 |

Copied from the list:
log2 fold change, UniProt Q969U6 (peptide sequence: QILPHQMTTAGPVLGEGR, peptide start residue: 369) is entered as 0.306
log2 fold change, UniProt Q96BW9 (peptide sequence: VLNIVKPNIAHFR, peptide start residue: 201) is entered as 0.555

(cont.)

| Target | log2 fold change |
| --- | --- |
| UniProt Q96DL1 (peptide sequence: KHGHPFVTKK, peptide start residue: 412) | -0.185 |
| CDKL2 (peptide sequence: KIAMREIK, peptide start residue: 46) (UniProt Q92772) | 0.389 |
| ISOC2 (peptide sequence: GLQVHVVVDACSSR, peptide start residue: 126) (UniProt Q96AB3) | -0.161 |
| RPE (peptide sequence: NVCSEAAQK, peptide start residue: 215) (UniProt Q96AT9) | 0.284 |
| UniProt Q92623 (peptide sequence: PASPAGALKPGR, peptide start residue: 103) | -0.0188 |
| ERCC4 (peptide sequence: EGRDETNLDLVR, peptide start residue: 647) (UniProt Q92889) | -0.0988 |
| PYCR2 (peptide sequence: GFTAAGILSAHK, peptide start residue: 18) (UniProt Q96C36) | -0.0698 |
| KIFAP3 (peptide sequence: WHNSQWLEMVESR, peptide start residue: 678) (UniProt Q92845) | 0.686 |
| NEIL2 (peptide sequence: FQGRPQHTQVYQK, peptide start residue: 276) (UniProt Q969S2) | 0.425 |
| THAP11 (peptide sequence: LLAMAVIR, peptide start residue: 302) (UniProt Q96EK4) | -0.144 |
| SECISBP2L (peptide sequence: EYETNWR, peptide start residue: 873) (UniProt Q93073) | 0.414 |
| FGF13 (peptide sequence: SMSHNEST, peptide start residue: 238) (UniProt Q92913) | 0.27 |
| MRPL53 (peptide sequence: TFLQTVSSEK, peptide start residue: 32) (UniProt Q96EL3) | 0.102 |
| CHMP4C (peptide sequence: SVHENMDLNK, peptide start residue: 118) (UniProt Q96CF2) | 0.319 |
| UniProt Q96C57 (peptide sequence: HKVNEHEQDGNELQTTPEFR, peptide start residue: 64) | -0.0824 |
| UniProt Q92619 (peptide sequence: SAPDGVPFIVK, peptide start residue: 769) | 0.35 |
| USP9X (peptide sequence: IELFVGGELIDPADDRK, peptide start residue: 932) (UniProt Q93008) | 0.164 |
| RIT1 (peptide sequence: TDDTPVVLVGNK, peptide start residue: 124) (UniProt Q92963) | -0.39 |
